Record: PubChem BioAssay AID1259308 (NCATS, 2017)
This is a random part of about 59,000 deposited reagents. About 1,510 of them (2.6%) count as active. 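Calls use total luciferase alone and ignore viability, so some active siRNAs may act by altering cell number.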 Unmarked entries are inactive.

- Aim: 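Knock-downs that increase output of a recombinant reporter protein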 (primary screen)
- Cell system: human HEK293 embryonic kidney cells stably expressing firefly luciferase (HEK-CMV-Luc2-Hygro)
- Reagents: single siRNA against human genes, 0.8 pmol siRNA per well
- Time to read-out: 72 h
- Measured: 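Luciferase light (ONE-Glo) measured on one replicate plate set and viability (CellTiter-Glo) on the other, scaled to a negative control siRNA, with robust z-scores and luciferase per cell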
- Direction: total luciferase, z-score and total luciferase, % of control: higher = more reporter protein produced; luciferase per cell, z-score: higher = more reporter output per viable cell; viable cells, % of control: higher = more viable cells
- Call rule: 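Active when the median/MAD z-score for overall luciferase is greater than 3; a gene was taken forward for validation with new siRNAs if at least two of its three siRNAs passed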
- Calls: active = raised luciferase; inactive = no rise

The opening 3 records as a preview:
| gene | PubChem SID | total luciferase, z-score | total luciferase, % of control | luciferase per cell, z-score | viable cells, % of control |
| --- | --- | --- | --- | --- | --- |
| IGSF22 (immunoglobulin superfamily member 22) | SID160762843 | 0.343 | 88.7 | 2.36 | 53.2 |
| IGSF22 (immunoglobulin superfamily member 22) | SID160762844 | 0.974 | 101 | 0.546 | 98 |
| IGSF22 (immunoglobulin superfamily member 22) | SID160762845 | -0.0764 | 80.4 | -0.343 | 98.3 |

The listing, repeating the preview:
| gene | PubChem SID | total luciferase, z-score | total luciferase, % of control | luciferase per cell, z-score | viable cells, % of control |
| --- | --- | --- | --- | --- | --- |
| IGSF22 (immunoglobulin superfamily member 22) | SID160762843 | 0.343 | 88.7 | 2.36 | 53.2 |
| IGSF22 (immunoglobulin superfamily member 22) | SID160762844 | 0.974 | 101 | 0.546 | 98 |
| IGSF22 (immunoglobulin superfamily member 22) | SID160762845 | -0.0764 | 80.4 | -0.343 | 98.3 |
| ANP32B (acidic nuclear phosphoprotein 32 family member B) | SID160728689 | -0.145 | 79 | -0.206 | 93.2 |
| ANP32B (acidic nuclear phosphoprotein 32 family member B) | SID160728690 | -0.571 | 70.5 | -1.2 | 108 |
| ANP32B (acidic nuclear phosphoprotein 32 family member B) | SID160728691 | 0.808 | 98 | 0.153 | 105 |
| PTPN22 (protein tyrosine phosphatase non-receptor type 22) | SID160737757 | 1.17 | 105 | 1.55 | 78.2 |
| PTPN22 (protein tyrosine phosphatase non-receptor type 22) | SID160737758 | 1.72 | 116 | 1.31 | 91.8 |
| PTPN22 (protein tyrosine phosphatase non-receptor type 22) | SID160737759 | 0.192 | 85.7 | -0.188 | 101 |
| SDK1 (sidekick cell adhesion molecule 1) | SID160761781 | 0.5 | 91.8 | 0.843 | 82.2 |
| SDK1 (sidekick cell adhesion molecule 1) | SID160761782 | 0.247 | 86.8 | 0.505 | 84.9 |
| SDK1 (sidekick cell adhesion molecule 1) | SID160761783 | -0.854 | 64.9 | -0.397 | 80.5 |
| CHP2 (calcineurin like EF-hand protein 2) | SID160747293 | -0.104 | 79.8 | -0.423 | 99.7 |
| CHP2 (calcineurin like EF-hand protein 2) | SID160747294 | -0.599 | 70 | -0.366 | 86.1 |
| CHP2 (calcineurin like EF-hand protein 2) | SID160747295 | -0.316 | 75.6 | -0.886 | 107 |
| RPL29P32 (ribosomal protein L29 pseudogene 32) | SID160725278 | -0.694 | 68.1 | -0.374 | 84 |
| RPL29P32 (ribosomal protein L29 pseudogene 32) | SID160733260 | -1.61 | 49.9 | -0.196 | 58.7 |
| RPL29P32 (ribosomal protein L29 pseudogene 32) | SID160766583 | 1.9 | 120 | 1.17 | 98.3 |
| TNS1 (tensin 1) | SID160718237 | -0.11 | 79.7 | 0.233 | 83.8 |
| TNS1 (tensin 1) | SID160718240 | -0.32 | 75.5 | 0.474 | 74.5 |
| TNS1 (tensin 1) | SID160718241 | 0.621 | 94.2 | 1.39 | 73 |
| ATXN2L (ataxin 2 like) | SID160730336 | 0.377 | 89.4 | -0.134 | 103 |
| ATXN2L (ataxin 2 like) | SID160730337 | -0.909 | 63.8 | -0.713 | 86 |
| ATXN2L (ataxin 2 like) | SID160730338 | 1.06 | 103 | 0.474 | 102 |
| PER3 (period circadian regulator 3) | SID160721000 | 1.85 | 119 | 1.47 | 90 |
| PER3 (period circadian regulator 3) | SID160721001 | -0.409 | 73.8 | 0.783 | 67.1 |
| PER3 (period circadian regulator 3) | SID160721002 | 0.161 | 85.1 | -0.434 | 107 |
| CNGA1 (cyclic nucleotide gated channel subunit alpha 1) | SID160745231 | -0.309 | 75.7 | -0.771 | 104 |
| CNGA1 (cyclic nucleotide gated channel subunit alpha 1) | SID160745241 | 0.813 | 98.1 | 0.278 | 102 |
| CNGA1 (cyclic nucleotide gated channel subunit alpha 1) | SID160745252 | 0.415 | 90.1 | -0.166 | 105 |
| STK26 (serine/threonine kinase 26) | SID160741335 | 0.0253 | 82.4 | -0.501 | 105 |
| STK26 (serine/threonine kinase 26) | SID160741336 | -0.586 | 70.2 | -0.75 | 95.6 |
| STK26 (serine/threonine kinase 26) | SID160741337 | 0.0454 | 82.8 | -0.53 | 106 |
| KRT6A (keratin 6A) | SID160776390 | -0.181 | 78.3 | -0.382 | 96.7 |
| KRT6A (keratin 6A) | SID160776392 | -0.517 | 71.6 | -1.25 | 111 |
| KRT6A (keratin 6A) | SID160776393 | -0.255 | 76.8 | -0.611 | 101 |
| OXT (oxytocin/neurophysin I prepropeptide) | SID160723969 | 1.13 | 104 | 0.991 | 89.8 |
| OXT (oxytocin/neurophysin I prepropeptide) | SID160723970 | -0.213 | 77.6 | -0.653 | 103 |
| OXT (oxytocin/neurophysin I prepropeptide) | SID160723971 | 1.14 | 105 | 0.817 | 94.2 |
